No constants are given. Whether binding was seen depends on the method and setting. In cells and extracts the contact can be indirect. Some entries that bind do so weakly or less than the wild type. Sequences can lack the tags named with a protein.
How the values were obtained:
[1] = target: T1, Dma2, 3X-HA-tagged at the C terminus (S. cerevisiae) (UniProt P53924); test: co-IP; 3XHA-tagged Dma1 or Dma2 precipitated from 1 mg yeast lysate (lysis buffer with Universal nuclease and Benzonase) with the indicated antibody overnight at 4 °C in buffer A (50 mM Hepes-KOH pH 7.5, 125 mM potassium acetate, 1% NP-40), Protein A agarose, six washes, immunoblot; cells with phleomycin treatment or no treatment
T1 sequence: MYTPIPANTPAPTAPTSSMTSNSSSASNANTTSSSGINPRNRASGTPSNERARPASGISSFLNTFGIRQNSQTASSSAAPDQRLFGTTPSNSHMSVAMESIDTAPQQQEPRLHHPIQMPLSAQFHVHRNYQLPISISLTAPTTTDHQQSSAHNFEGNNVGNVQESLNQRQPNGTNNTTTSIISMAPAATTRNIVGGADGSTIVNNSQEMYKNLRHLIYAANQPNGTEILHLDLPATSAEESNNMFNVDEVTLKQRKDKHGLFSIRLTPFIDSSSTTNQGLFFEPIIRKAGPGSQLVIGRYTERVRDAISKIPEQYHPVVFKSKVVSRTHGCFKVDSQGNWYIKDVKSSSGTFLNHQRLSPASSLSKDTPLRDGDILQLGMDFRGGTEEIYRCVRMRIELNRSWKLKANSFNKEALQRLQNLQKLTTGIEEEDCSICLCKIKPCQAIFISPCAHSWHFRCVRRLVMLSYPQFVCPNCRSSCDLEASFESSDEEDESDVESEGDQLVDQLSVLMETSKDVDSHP

Chains of the proteins cited; added tags and fusions are not shown.
UniProt P22216: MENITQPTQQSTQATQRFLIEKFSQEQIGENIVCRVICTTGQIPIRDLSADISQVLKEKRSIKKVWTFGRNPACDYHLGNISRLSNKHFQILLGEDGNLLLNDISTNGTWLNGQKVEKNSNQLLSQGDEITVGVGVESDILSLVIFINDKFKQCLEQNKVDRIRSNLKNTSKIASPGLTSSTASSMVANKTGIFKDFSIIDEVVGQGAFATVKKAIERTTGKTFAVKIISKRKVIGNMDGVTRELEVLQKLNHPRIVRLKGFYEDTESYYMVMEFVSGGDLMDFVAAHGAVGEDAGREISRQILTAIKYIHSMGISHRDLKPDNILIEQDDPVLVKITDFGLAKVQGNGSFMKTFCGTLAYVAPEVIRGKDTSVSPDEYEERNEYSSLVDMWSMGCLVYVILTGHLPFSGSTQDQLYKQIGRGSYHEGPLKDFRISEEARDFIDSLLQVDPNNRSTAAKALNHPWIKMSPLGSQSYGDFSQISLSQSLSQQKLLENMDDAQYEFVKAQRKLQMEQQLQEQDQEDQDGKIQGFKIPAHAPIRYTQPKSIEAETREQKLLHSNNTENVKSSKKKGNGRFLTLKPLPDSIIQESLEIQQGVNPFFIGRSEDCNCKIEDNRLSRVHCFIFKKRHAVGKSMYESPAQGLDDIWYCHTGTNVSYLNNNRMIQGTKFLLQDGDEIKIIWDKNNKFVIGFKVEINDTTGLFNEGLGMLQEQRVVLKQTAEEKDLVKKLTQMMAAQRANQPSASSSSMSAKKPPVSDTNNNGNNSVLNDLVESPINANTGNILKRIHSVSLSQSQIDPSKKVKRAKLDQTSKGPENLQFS

[2] = target: T2, Dma1, 3X-HA-tagged at the C terminus (S. cerevisiae) (UniProt P38823); test: as above
T2 sequence: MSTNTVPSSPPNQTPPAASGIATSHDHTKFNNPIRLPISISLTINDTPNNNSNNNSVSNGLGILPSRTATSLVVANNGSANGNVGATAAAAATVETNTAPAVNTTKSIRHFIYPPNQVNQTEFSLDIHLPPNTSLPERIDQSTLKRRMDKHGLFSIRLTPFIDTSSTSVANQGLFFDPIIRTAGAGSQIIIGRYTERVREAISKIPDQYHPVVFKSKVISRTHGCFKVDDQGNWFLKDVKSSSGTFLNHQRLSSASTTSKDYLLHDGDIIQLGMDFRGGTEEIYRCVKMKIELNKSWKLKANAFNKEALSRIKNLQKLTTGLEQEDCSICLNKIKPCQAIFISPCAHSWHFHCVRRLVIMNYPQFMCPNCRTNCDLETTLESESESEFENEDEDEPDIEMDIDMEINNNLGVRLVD

Rad53 (from UniProt P22216 1-821)
binding [1]: binds | binding [2]: binds

Reference: PMC8165551
